Here are results for one substance from paper doi:10.1101/2023.09.04.556207.

Sequences of proteins named here, by UniProt entry; tags and fusion partners are left off. Residues count along the entry.
UniProt P10809, residues 27-573: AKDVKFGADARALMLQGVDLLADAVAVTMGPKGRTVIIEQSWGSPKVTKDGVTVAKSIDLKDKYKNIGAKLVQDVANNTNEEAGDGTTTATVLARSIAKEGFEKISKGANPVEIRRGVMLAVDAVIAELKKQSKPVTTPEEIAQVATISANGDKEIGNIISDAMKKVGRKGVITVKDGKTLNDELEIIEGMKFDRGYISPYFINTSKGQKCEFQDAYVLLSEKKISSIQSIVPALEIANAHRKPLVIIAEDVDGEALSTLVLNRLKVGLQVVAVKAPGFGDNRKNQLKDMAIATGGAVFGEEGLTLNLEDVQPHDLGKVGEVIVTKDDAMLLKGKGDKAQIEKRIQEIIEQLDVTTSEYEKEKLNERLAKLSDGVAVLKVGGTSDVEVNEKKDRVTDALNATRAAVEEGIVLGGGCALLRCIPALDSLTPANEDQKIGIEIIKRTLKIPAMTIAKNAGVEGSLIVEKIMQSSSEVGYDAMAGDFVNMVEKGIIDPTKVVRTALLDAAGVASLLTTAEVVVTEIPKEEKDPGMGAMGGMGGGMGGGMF

Results are given in words; binding and its absence hold for the method and conditions named. Binding seen in cells or lysates may run through a third protein. Tags and fused reporters may be left off the sequences shown.

This assay has as its target T1, SLP2-MYC (human) (UniProt Q9UJZ1).
T1 sequence: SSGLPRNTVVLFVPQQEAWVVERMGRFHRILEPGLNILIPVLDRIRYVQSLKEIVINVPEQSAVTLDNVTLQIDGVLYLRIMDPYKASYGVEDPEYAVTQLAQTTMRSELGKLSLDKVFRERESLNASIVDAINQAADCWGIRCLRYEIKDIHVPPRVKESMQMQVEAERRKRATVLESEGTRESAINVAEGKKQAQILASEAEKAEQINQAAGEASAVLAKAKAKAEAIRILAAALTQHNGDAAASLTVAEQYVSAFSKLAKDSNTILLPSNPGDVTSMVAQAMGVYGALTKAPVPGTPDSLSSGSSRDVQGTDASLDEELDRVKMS
Nature of the assay: co-IP.

Turning to HSP60 (from UniProt P10809 27-573), the binding result is on record as “no binding”.
